Source: the supplement of paper PMC10727501
The other results are listed elsewhere or left out. Single values are uncertain here, since repeats match poorly.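 Free-swimming zebrafish larvae were scored for O-bend response probability to dark flashes (naive: first five; training: remaining flashes of four 60-flash blocks; test: later 60-flash block) and for turning toward alternating leftward/rightward LED motion (OMR). Six treated larvae were compared with sixty 0.1% DMSO controls; |SSMD|≥2 defined a hit.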

Tested on: Danio rerio larvae (5 dpf, TLF)
Assay: Prob-Test (SSMD vs DMSO vehicle); higher = higher than vehicle (e.g. higher dark-flash O-bend response probability, or better optomotor performance)
Details: 10 µM; pre-incubation: 30-90 min

Which Prob-Test does the source give for `O=c1cc(O)c(Cl)c[nH]1` [Gimeracil] here?
Its Prob-Test is 0.324.

How did the Prob-Test turn out when `CO[C@H]1/C=C/O[C@]2(C)Oc3c(C)c(O)c4c(O)c(c5c(nc6cc(C)ccn65)c4c3C2=O)NC(=O)/C(C)=C\C=C\[C@@H](C)[C@H](O)[C@H](C)[C@@H](O)[C@@H](C)[C@H](OC(C)=O)[C@@H]1C` [Rifaximin] was run?
Its Prob-Test is -0.112.

Which Prob-Test does the source give for `Cl.Nc1c2c(nc3ccccc13)CCCC2` [Tacrine HCl] here?
Its Prob-Test is 0.294.

How did the Prob-Test turn out when `CC(C)Cn1cnc2c(N)nc3ccccc3c21` [Imiquimod] was run?
The Prob-Test was 0.0358.

With `COc1ccc2cc(-c3[nH]c(-c4ccc(S(C)=O)cc4)nc3-c3ccncc3)ccc2c1` (stereo unspecified) [Tie2 kinase inhibitor] as the compound, how does the Prob-Test read?
Its Prob-Test is -0.228.

Which Prob-Test does the source give for `NS(=O)(=O)c1cc2c(cc1Cl)N=CNS2(=O)=O` [Chlorothiazide] here?
The Prob-Test was -0.302.

Tested on: Danio rerio larvae (5 dpf, TLF)
Assay: Prob-Naive (SSMD vs DMSO vehicle); higher = higher than vehicle (e.g. higher dark-flash O-bend response probability, or better optomotor performance)
Details: 10 µM; pre-incubation: 30-90 min

Which Prob-Naive does the source give for `CC(=O)S[C@@H]1CC2=CC(=O)CC[C@]2(C)[C@@H]2CC[C@@]3(C)[C@@H](CC[C@]34CCC(=O)O4)[C@@H]21` [Spironolactone] here?
The Prob-Naive was -0.0273.

How did the Prob-Naive turn out when `CC[C@@H](CO)NCCN[C@@H](CC)CO.Cl.Cl` [Ethambutol HCl] was run?
Its Prob-Naive is 0.

Which Prob-Naive does the source give for `C#CCN(C)CCCOc1ccc(Cl)cc1Cl.Cl` [Clorgyline HCl] here?
Its Prob-Naive is -0.298.

With `O=C(NOC[C@H](O)CO)c1ccc(F)c(F)c1Nc1ccc(I)cc1F` as the compound, how does the Prob-Naive read?
Its Prob-Naive is -0.19.

How did the Prob-Naive turn out when `COc1cc2ncnc(Nc3cccc(Br)c3)c2cc1OC.Cl` was run?
Its Prob-Naive is -0.0443.

With `CC(C(=O)[O-])c1cccc(Oc2ccccc2)c1.CC(C(=O)[O-])c1cccc(Oc2ccccc2)c1.[Ca+2]` (stereo unspecified) [Fenoprofen Calcium] as the compound, how does the Prob-Naive read?
Its Prob-Naive is -0.803.

How did the Prob-Naive turn out when `Cc1nccn1CC1CCc2c(c3ccccc3n2C)C1=O.Cl` (stereo unspecified) [Ondansetron HCl] was run?
The Prob-Naive was 0.442.

`COc1cc2c(cc1OC)[C@@H]1Cc3ccc(OC)c(OC)c3CN1CC2` [Rotundine] was tested. Which Prob-Naive did it give?
Its Prob-Naive is 0.028.

`CC(C)(C(=O)O)c1ccc(C(O)CCCN2CCC(C(O)(c3ccccc3)c3ccccc3)CC2)cc1.Cl` (stereo unspecified) [Fexofenadine HCl] was tested. Which Prob-Naive did it give?
The Prob-Naive was -0.779.

How did the Prob-Naive turn out when `Cc1cccc(C#Cc2ccccc2)n1` was run?
The Prob-Naive was -0.369.

`C[C@H]1C[C@@H]2[C@@H]([C@H](O)C[C@@]3(C)[C@H]2CC[C@@]3(O)C(=O)CO)[C@@]2(C)C=CC(=O)C=C12` [Methylprednisolone] was tested. Which Prob-Naive did it give?
Its Prob-Naive is -0.424.

How did the Prob-Naive turn out when `CO[C@@H](C(=O)N1Cc2[nH]nc(NC(=O)c3ccc(N4CCN(C)CC4)cc3)c2C1)c1ccccc1` was run?
Its Prob-Naive is 0.00409.

With `C[N+](C)(CCOc1ccccc1)Cc1ccccc1.O=C(O)c1cc2ccccc2cc1[O-]` [Bephenium Hydroxynaphthoate] as the compound, how does the Prob-Naive read?
Its Prob-Naive is -0.0583.

How did the Prob-Naive turn out when `COc1nc(C)cnc1NS(=O)(=O)c1cccnc1-c1ccc(-c2nnco2)cc1` [Zibotentan (ZD4054)] was run?
The Prob-Naive was 0.29.

`CCN(CC)C(=O)/C(C#N)=C/c1cc(O)c(O)c([N+](=O)[O-])c1` [Entacapone] was tested. Which Prob-Naive did it give?
The Prob-Naive was -0.445.

Which Prob-Naive does the source give for `CCCCC(=O)O[C@@]1(C(=O)CO)[C@@H](C)C[C@H]2[C@@H]3CCC4=CC(=O)C=C[C@]4(C)[C@]3(F)[C@H](O)C[C@@]21C` [Betamethasone valerate (Betnovate)] here?
Its Prob-Naive is 0.312.

For `CN1CCN(c2c(F)cc3c(=O)c(C(=O)O)cn4c3c2OCN4C)CC1` [Marbofloxacin], which Prob-Naive is on record?
The Prob-Naive was 0.0252.

`CNC1CCCN(c2c(F)cc3c(=O)c(C(=O)O)cn(C4CC4)c3c2OC)C1` (stereo unspecified) [Balofloxacin] was tested. Which Prob-Naive did it give?
Its Prob-Naive is -0.485.

Which Prob-Naive does the source give for `O=c1[nH]cnc2c1ncn2[C@H]1O[C@H](CO)[C@@H](O)[C@H]1O` [Inosine] here?
The Prob-Naive was -0.639.

Which Prob-Naive does the source give for `CO[C@H]1C[C@@H]2CC[C@@H](C)[C@@](O)(O2)C(=O)C(=O)N2CCCC[C@H]2C(=O)O[C@H]([C@H](C)C[C@@H]2CC[C@@H](O)[C@H](OC)C2)CC(=O)[C@H](C)/C=C(\C)[C@@H](O)[C@@H](OC)C(=O)[C@H](C)C[C@H](C)/C=C/C=C/C=C/1C` [Rapamycin (Sirolimus)] here?
Its Prob-Naive is 0.00409.

With `N#C/C(=C(/N)Sc1ccc(N)cc1)c1ccccc1C(F)(F)F` as the compound, how does the Prob-Naive read?
Its Prob-Naive is -1.01.

For `CC(O)(P(=O)(O)O)P(=O)(O)O` [Etidronate (Didronel)], which Prob-Naive is on record?
The Prob-Naive was 0.549.

For `N[C@@H](Cc1cc(I)c(Oc2ccc(O)c(I)c2)c(I)c1)C(=O)[O-].[Na+]` [Liothyronine Sodium], which Prob-Naive is on record?
Its Prob-Naive is -0.314.

For `C[C@]12CCC(=O)C=C1CC[C@@H]1[C@H]2[C@H](O)C[C@@]2(C)[C@H]1CC[C@@]2(O)C(=O)CO` [Hydrocortisone], which Prob-Naive is on record?
Its Prob-Naive is 0.459.

For `COc1cc(N2CCC(N3CCN(C)CC3)CC2)ccc1Nc1ncc(Cl)c(Nc2ccccc2S(=O)(=O)C(C)C)n1`, which Prob-Naive is on record?
The Prob-Naive was 0.00409.

`Cc1cnc(C(=O)NCCc2ccc(S(=O)(=O)NC(=O)NC3CCCCC3)cc2)cn1` [Glipizide] was tested. Which Prob-Naive did it give?
Its Prob-Naive is 0.26.

How did the Prob-Naive turn out when `COc1c(N2CCNC(C)C2)c(F)cc2c(=O)c(C(=O)O)cn(C3CC3)c12` (stereo unspecified) [Gatifloxacin] was run?
The Prob-Naive was -0.134.

For `COc1cc(C(=O)NC2CCCNC2)cc(OC)c1OC` (stereo unspecified) [Troxipide], which Prob-Naive is on record?
The Prob-Naive was 0.0179.

With `OC[C@H]1O[C@@H](c2ccc(Cl)c(Cc3ccc(O[C@H]4CCOC4)cc3)c2)[C@H](O)[C@@H](O)[C@@H]1O` as the compound, how does the Prob-Naive read?
The Prob-Naive was 0.42.

For `Cn1cnc2c1c(=O)[nH]c(=O)n2C` [Theobromine], which Prob-Naive is on record?
Its Prob-Naive is -0.247.

With `CC(C)(C)c1cnc(CSc2cnc(NC(=O)C3CCNCC3)s2)o1` as the compound, how does the Prob-Naive read?
The Prob-Naive was 0.568.

Which Prob-Naive does the source give for `COc1cc2ncnc(Nc3ccc(Cl)cc3F)c2cc1OC` here?
The Prob-Naive was -0.304.

`CS(=O)(=O)N1CCN(Cc2cc3nc(-c4cccc5[nH]ncc45)nc(N4CCOCC4)c3s2)CC1` was tested. Which Prob-Naive did it give?
The Prob-Naive was -0.225.

`CCOC(=O)[C@H](CCc1ccccc1)N[C@H]1CCCN2CCC[C@H](C(=O)O)N2C1=O.O` [Cilazapril Monohydrate] was tested. Which Prob-Naive did it give?
The Prob-Naive was 0.338.

For `O=c1cc(O)c(Cl)c[nH]1` [Gimeracil], which Prob-Naive is on record?
Its Prob-Naive is -0.0729.

How did the Prob-Naive turn out when `CO[C@H]1/C=C/O[C@]2(C)Oc3c(C)c(O)c4c(O)c(c5c(nc6cc(C)ccn65)c4c3C2=O)NC(=O)/C(C)=C\C=C\[C@@H](C)[C@H](O)[C@H](C)[C@@H](O)[C@@H](C)[C@H](OC(C)=O)[C@@H]1C` [Rifaximin] was run?
Its Prob-Naive is 0.493.

For `Cl.Nc1c2c(nc3ccccc13)CCCC2` [Tacrine HCl], which Prob-Naive is on record?
Its Prob-Naive is 0.457.

For `CC(C)Cn1cnc2c(N)nc3ccccc3c21` [Imiquimod], which Prob-Naive is on record?
The Prob-Naive was 0.459.

`COc1ccc2cc(-c3[nH]c(-c4ccc(S(C)=O)cc4)nc3-c3ccncc3)ccc2c1` (stereo unspecified) [Tie2 kinase inhibitor] was tested. Which Prob-Naive did it give?
Its Prob-Naive is -0.385.

`NS(=O)(=O)c1cc2c(cc1Cl)N=CNS2(=O)=O` [Chlorothiazide] was tested. Which Prob-Naive did it give?
The Prob-Naive was 0.26.
